Results are given in words; binding and its absence hold for the method and conditions named. Some binding calls cover weakened binding; strength is not graded here.
Legend:
rat CLDN4 (rat) = molecular target: T1, rat CLDN4 (rat) (UniProt Q5XIT8); experiment: flow cytometry (data not shown)
T1 sequence: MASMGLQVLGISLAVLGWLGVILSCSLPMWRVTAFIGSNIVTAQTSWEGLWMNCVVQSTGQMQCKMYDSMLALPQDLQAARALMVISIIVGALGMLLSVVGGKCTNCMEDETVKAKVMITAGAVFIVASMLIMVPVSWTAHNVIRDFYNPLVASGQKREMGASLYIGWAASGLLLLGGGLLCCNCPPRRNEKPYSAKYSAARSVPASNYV

Protein sequences, listed by entry. Tags and fused reporters are not part of them.
UniProt O35054: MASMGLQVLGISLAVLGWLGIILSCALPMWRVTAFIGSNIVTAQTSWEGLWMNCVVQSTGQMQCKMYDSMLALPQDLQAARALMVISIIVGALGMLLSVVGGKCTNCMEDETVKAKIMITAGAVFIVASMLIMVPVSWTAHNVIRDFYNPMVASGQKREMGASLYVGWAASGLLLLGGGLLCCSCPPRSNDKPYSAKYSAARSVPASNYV
UniProt O14493: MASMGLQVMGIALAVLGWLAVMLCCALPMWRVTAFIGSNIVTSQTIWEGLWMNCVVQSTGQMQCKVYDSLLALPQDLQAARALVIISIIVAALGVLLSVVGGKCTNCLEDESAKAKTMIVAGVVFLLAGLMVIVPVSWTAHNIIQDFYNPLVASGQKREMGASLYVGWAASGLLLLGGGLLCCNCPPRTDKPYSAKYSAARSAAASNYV
UniProt O95484: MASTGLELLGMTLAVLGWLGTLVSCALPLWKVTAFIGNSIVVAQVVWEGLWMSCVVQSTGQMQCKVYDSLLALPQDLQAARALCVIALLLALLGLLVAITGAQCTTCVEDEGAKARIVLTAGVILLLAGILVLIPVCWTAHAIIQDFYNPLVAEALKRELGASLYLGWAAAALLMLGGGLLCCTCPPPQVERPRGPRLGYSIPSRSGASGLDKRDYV

mouse CLDN4 (mouse) = mouse CLDN4 (mouse) (UniProt O35054); experiment: flow cytometry (data not shown)
human CLDN6 (human) [1] = molecular target: T2, human CLDN6 (human) (UniProt P56747); experiment: flow cytometry on HEK-293T cells overexpressing human CLDN6 (FIG. 4A legend)
T2 sequence (looked up): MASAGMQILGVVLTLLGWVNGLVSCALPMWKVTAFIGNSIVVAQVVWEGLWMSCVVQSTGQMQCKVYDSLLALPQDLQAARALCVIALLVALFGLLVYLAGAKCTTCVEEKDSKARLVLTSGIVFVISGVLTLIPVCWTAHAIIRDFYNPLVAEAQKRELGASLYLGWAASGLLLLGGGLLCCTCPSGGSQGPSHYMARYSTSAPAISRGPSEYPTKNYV

human CLDN4 (human) [2] = molecular target: human CLDN4 (human) (UniProt O14493); experiment: flow cytometry on HEK-293T cells overexpressing human CLDN4 (FIG. 4A legend)
human CLDN9 (human) [3] = molecular target: human CLDN9 (human) (UniProt O95484); experiment: flow cytometry on HEK-293T cells overexpressing human CLDN9 (FIG. 4A legend)
human CLDN6 (human) [4] = molecular target: T2, human CLDN6 (human); experiment: flow cytometry, 10 µg/ml antibody on transduced HEK-293T cells
human CLDN9 (human) [5] = molecular target: human CLDN9 (human) (UniProt O95484); experiment: as above
human CLDN4 (human) [6] = molecular target: human CLDN4 (human) (UniProt O14493); experiment: as above
human CLDN6 (human) [7] = molecular target: T2, human CLDN6 (human); experiment: flow cytometry, 1 microgram SC27.22 against isotype control on HEK-293T cells overexpressing human CLDN6
human CLDN6 (human) [8] = molecular target: T2, human CLDN6 (human); experiment: flow cytometry on dissociated OV78 ovarian PDX tumor cells with endogenous claudins, 1 microgram of antibody per sample. The axis is labelled CLDN6, but SC27.22 also binds CLDN4 and CLDN9, so other claudins may add to the signal
human CLDN6 (human) [9] = molecular target: T2, human CLDN6 (human); experiment: flow cytometry on HEK-293T cells overexpressing human CLDN6 (293T-CLDN6), 1 microgram of antibody per sample, AlexaFluor-647 anti-mouse IgG Fc secondary antibody

Measured: binding

B1: SC27.1 mouse anti-CLDN monoclonal antibody (antibody, V domains shown)
VH: EVQLQESRPELVKPGASVKISCKTSGYTFTEYTLHWVKQSHGKSLEWIGGINPNNGDTIYNQKFKGKATLTVDKSSSTAYMELRSLTSEYSAVYYCARRAITVYAMDYWGQGTSVTVSS
VL: DIQMTQSSSSFSVSLGDRVTITCKASEDIYNRLAWYQQKPGNAPRLLISGATSLETGTPSRFSGSGSGKDYTLSITSLRTEDAATYYCQQYWSTPLTFGTGTKLELK
not listed: human CLDN6 (human) [7] | human CLDN6 (human) [8] | human CLDN6 (human) [9]
binds: all other assays above

B2: SC27.22 mouse anti-CLDN monoclonal antibody (antibody, V domains shown)
VH: QVQLQQPGAELVRPGASVKLSCKASGYTFTSYWMNWVKQRPGQGLEWIAMIHPSDSEIRLNQKFKDKATLTVDRSSSTAYMQLSSPTSEDSAVYYCARIDSYYGYLFYFDYWGQGTTLTVSS
VL: DIVLTQSPASLAVSLGQRATISCRASQTVSTSSYSYMHWFQQKPGQPPKLLIKFASNVESGVPARFSGSGSGTDFTLNIHPVEEEDISTYYCQHSWEIPWTFGGGTKLEIK
binds: all assays above
